{"source": "paper PMC7216583", "about": "(Parasites & Vectors, 2020)", "system": "Toxoplasma gondii RH-2F tachyzoites", "assay": "microbe, parasite or virus in culture", "settings": "72 h, read-out: Parasite inhibition (%) mean"}
{"smiles": "CC1=C(C(=O)O)N2C(=O)[C@@H](NC(=O)[C@H](N)c3ccccc3)[C@@H]2SC1", "note": "[Cephalexin (Cefalexin)]", "values": [{"measurement": "inhibition of growth at 5 µM", "result": 2.9, "unit": "%"}]}
